The source of these data is paper PMC10897422.

No constants are given. Whether binding was seen depends on the method and setting. In cells and extracts the contact can be indirect. Here binding means that the protein was enriched with, or labelled near, the bait; the list need not be complete. Tags and fused reporters may be left off the sequences shown.

This test has as its target T1, GFP-Syntaxin 11 (UniProt O75558).
T1 sequence: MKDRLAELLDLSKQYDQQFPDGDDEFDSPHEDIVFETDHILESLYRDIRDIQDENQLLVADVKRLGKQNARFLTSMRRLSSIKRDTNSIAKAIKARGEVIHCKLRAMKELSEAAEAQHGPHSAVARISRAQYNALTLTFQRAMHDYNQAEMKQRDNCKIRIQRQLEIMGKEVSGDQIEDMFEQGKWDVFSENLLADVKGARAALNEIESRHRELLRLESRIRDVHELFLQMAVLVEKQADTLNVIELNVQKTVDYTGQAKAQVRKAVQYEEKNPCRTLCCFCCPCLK
The experiment in a line: affinity purification with mass spectrometry; GFP-STX11 (or GFP alone) expressed in primary human CD8+ T cells; 24 h later cells activated with anti-CD3 and anti-CD28-coated beads, lysed; co-IP kit (Thermo Scientific) with anti-GFP-coated beads; bound proteins run on SDS/PAGE and identified by mass spectrometry.

B1: Extended-Synaptotagmin-1 (protein, UniProt Q9BSJ8 1-1104)
chain: MERSPGEGPSPSPMDQPSAPSDPTDQPPAAHAKPDPGSGGQPAGPGAAGEALAVLTSFGRRLLVLIPVYLAGAVGLSVGFVLFGLALYLGWRRVRDEKERSLRAARQLLDDEEQLTAKTLYMSHRELPAWVSFPDVEKAEWLNKIVAQVWPFLGQYMEKLLAETVAPAVRGSNPHLQTFTFTRVELGEKPLRIIGVKVHPGQRKEQILLDLNISYVGDVQIDVEVKKYFCKAGVKGMQLHGVLRVILEPLIGDLPFVGAVSMFFIRRPTLDINWTGMTNLLDIPGLSSLSDTMIMDSIAAFLVLPNRLLVPLVPDLQDVAQLRSPLPRGIIRIHLLAARGLSSKDKYVKGLIEGKSDPYALVRLGTQTFCSRVIDEELNPQWGETYEVMVHEVPGQEIEVEVFDKDPDKDDFLGRMKLDVGKVLQASVLDDWFPLQGGQGQVHLRLEWLSLLSDAEKLEQVLQWNWGVSSRPDPPSAAILVVYLDRAQDLPLKKGNKEPNPMVQLSIQDVTQESKAVYSTNCPVWEEAFRFFLQDPQSQELDVQVKDDSRALTLGALTLPLARLLTAPELILDQWFQLSSSGPNSRLYMKLVMRILYLDSSEICFPTVPGCPGAWDVDSENPQRGSSVDAPPRPCHTTPDSQFGTEHVLRIHVLEAQDLIAKDRFLGGLVKGKSDPYVKLKLAGRSFRSHVVREDLNPRWNEVFEVIVTSVPGQELEVEVFDKDLDKDDFLGRCKVRLTTVLNSGFLDEWLTLEDVPSGRLHLRLERLTPRPTAAELEEVLQVNSLIQTQKSAELAAALLSIYMERAEDLPLRKGTKHLSPYATLTVGDSSHKTKTISQTSAPVWDESASFLIRKPHTESLELQVRGEGTGVLGSLSLPLSELLVADQLCLDRWFTLSSGQGQVLLRAQLGILVSQHSGVEAHSHSYSHSSSSLSEEPELSGGPPHITSSAPELRQRLTHVDSPLEAPAGPLGQVKLTLWYYSEERKLVSIVHGCRSLRQNGRDPPDPYVSLLLLPDKNRGTKRRTSQKKRTLSPEFNERFEWELPLDEAQRRKLDVSVKSNSSFMSRERELLGKVQLDLAETDLSQGVARWYDLMDNKDKGSS
With B1, the binding result is reported as “binds”.
